The supplement of paper PMC4635364
Structures can show the parent of a compound that is named as a salt. Some of the results follow. Single values are uncertain here, since repeats match poorly.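 Human fetal ventral-midbrain neural progenitor line ReNCell VM, differentiated without mitogens. Images stained for doublecortin (early neurons) or tyrosine hydroxylase (dopaminergic neurons) were scored by blinded raters against untreated wells (0 = no change). Repeats and both raters were averaged, and compounds averaging 2 or higher were picked as hits for retesting.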

tested on: ReNCell VM; test: dopaminergic neuron differentiation score (TH+ cell fraction vs untreated, manual image score) (score (0 to 3)); higher = more TH+ dopaminergic neuron differentiation; conditions: library: Spectrum; 2 uM; 4 weeks; BDNF 10 ng/ml + GDNF 10 ng/ml

Dopaminergic neuron differentiation score, inactive:
NC(=O)NS(=O)(=O)c1ccc(N)cc1 0
CCCCOc1ccc(CC(=O)NO)cc1 0
CC(C)(C)NC[C@H](O)COc1ccccc1C1CCCC1 0
CCOc1cc(CC(=O)N[C@@H](CC(C)C)c2ccccc2N2CCCCC2)ccc1C(=O)O 0
CO/N=C(\C(=O)N[C@@H]1C(=O)N2C(C(=O)O)=C(COC(N)=O)CS[C@H]12)c1ccco1 0
CC1(C)C(O[C@@H]2OC[C@@H](O)[C@H](O)[C@H]2O)CC[C@]23CC24CC[C@]2(C)[C@@H]([C@@]5(C)CC[C@@H](C(C)(C)O)O5)[C@H](O)C[C@@]2(C)C4C[C@@H](O[C@@H]2O[C@H](CO)[C@@H](O)[C@H](O)[C@H]2O)C13 (some centres not stated) 0
CC(N/C(=N\C#N)Nc1ccncc1)C(C)(C)C (configuration not stated) 0
CC(C)NNC(=O)c1ccncc1 0
COc1cc(C)c(C(=O)Oc2cc(C)c(C(=O)O)c(O)c2C)c(OC)c1C 0
COc1ccc2c(c1)c(CC(=O)OCC(=O)O)c(C)n2C(=O)c1ccc(Cl)cc1 0
CC1=CC(=O)NS(=O)(=O)O1 0
CC(=O)O[C@H]1CC[C@@]2(C)[C@@H](CC[C@@H]3[C@@H]2CC(=O)[C@]2(C)[C@@H]4[C@H](C[C@@H]32)O[C@]2(CC[C@@H](C)CO2)[C@H]4C)C1 0

Random excerpt: two records from the list
Dopaminergic neuron differentiation score, inactive:
CC(C)(C)NC[C@H](O)COc1ccccc1C1CCCC1 0
COc1cc(C)c(C(=O)Oc2cc(C)c(C(=O)O)c(O)c2C)c(OC)c1C 0

same assay, conditions: library: Tocriscreen; 2 uM; 4 weeks; BDNF 10 ng/ml + GDNF 10 ng/ml

Dopaminergic neuron differentiation score, inactive:
CN1CCN(C2=Cc3ccccc3Oc3ccc(Cl)cc32)CC1 0
Nc1nc2c(cnn2CCc2ccccc2)c2nc(-c3ccco3)nn12 0
COc1ccccc1N1CCN(CCCCNC(=O)c2ccc(-c3ccc(C(C)=O)cc3)cc2)CC1 0
CC(C)CC(NC(=O)OCC1c2ccccc2-c2ccccc21)C(=O)O (configuration not stated) 0
Cc1c[nH]c(=O)n(CCCN2CCN(c3ccccc3OCC(F)(F)F)CC2)c1=O 0
COc1ccc2cc([C@H](C)C(=O)O)ccc2c1 [Naproxen sodium] 0
CCCc1c(OCC(O)COc2ccc3c(=O)cc(C(=O)O)oc3c2CCC)ccc(C(C)=O)c1O (configuration not stated) 0
Cc1cc(/C(=C/Nc2ccc(Cl)cc2)C(=O)Nc2ccc(Cl)cc2)on1 0
Oc1ccc(Nc2nc(-c3ccc(Cl)cc3)cs2)cc1 0
O=C1c2ccccc2C(Cc2ccncc2)(Cc2ccncc2)c2ccccc21 [XE 991 dihydrochloride] 0
